Reference: PubChem BioAssay AID504842 (National Center for Advancing Translational Sciences (NCATS), 2011)
About 100 (0.03%) of roughly 330,000 compounds were called active. This list was built around the results that the source calls inconclusive (neither active nor inactive); the mix of calls is not that of the screen. Calls come from the whole dose curve; as a rule, active = well fitted inhibition curve with a large enough effect; inconclusive = small, poorly fitted or top-dose-only effect; inactive = flat fitted curve, though single readings scatter. Potencies beside an inconclusive call are fits to weak or partial responses and may not hold up.

Test system: Chaperonin Mm-Cpn (Methanococcus maripaludis)
Assay: Inhibitors of TCP-1 ring complex (TRiC) of Methanococcus maripaludis (MmCpn): qHTS; note: nearly all actives have a fitted effect of over 80% in size;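 for Potency: enzyme at 25 nM with ATP substrate at 10 µM during the reaction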
Conditions: purified Mm-Cpn ATPase, ADP Transcreener TR-FRET
In short: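 Compound-treated chaperonin, 25 nM final, turns over 10 uM ATP at 37°C for 30 min following a 10 min preincubation; ADP generated competes with ADP-d2 for Eu-cryptate antibody, lowering FRET.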
Potency is the fitted concentration of half-maximal effect.

Potency, inconclusive:
O=[N+]([O-])c1cc(CN2CCC(O)CC2)ccc1Cl 89.1 µM [inhibitor, single point]
CCN(CC)S(=O)(=O)c1ccc(NC(=O)c2cc(C(=O)OC)cc([N+](=O)[O-])c2)cc1 11.2 µM [inhibitor, single point]
CC1CC(C)(C)NC(=S)N1CCC(=O)NCc1ccc(Cl)cc1 (stereo not given) 20 µM [inhibitor, single point]
Cc1cc(C)n(-c2ncc(C#N)cn2)n1 89.1 µM [inhibitor, single point]
O=C(CNC(=O)c1ccccc1Cl)Nc1ccncc1 28.2 µM [inhibitor, single point]
O=C(Cc1csc(-c2ccc(F)cc2)n1)Nc1cccc(S(=O)(=O)NC2=NCCC2)c1 79.4 µM [inhibitor, single point]
O=C(Nc1ccccn1)c1cc(-c2cccc(Cl)c2)nc2ccccc12 141 µM [inhibitor, partial curve, poor fit]
N/C(=N\N=C\c1ccc([N+](=O)[O-])cc1)c1nonc1N 70.8 µM [inhibitor, single point]
O=C(CSc1nc2ccccc2s1)Nc1cc(S(=O)(=O)N2CCOCC2)ccc1Cl 100 µM [inhibitor, single point]
CCOC(=O)c1c(NC(=O)CSc2nnc(CNc3ccc(F)cc3)o2)sc(C(C)=O)c1C 63.1 µM [inhibitor, partial curve, poor fit]
O=C1c2ccccc2C(=O)N1Cc1nc2ccccc2c(=O)n1Cc1ccco1 316 µM [inhibitor, partial curve, poor fit]
CCOC(=O)CSc1nc2sc(C)c(C)c2c(=O)[nH]1 251 µM [inhibitor, partial curve, poor fit]
COc1ccc(N2CCN(C(=O)c3ccc4c(=O)n(CCc5ccc(OC)c(OC)c5)c(=O)[nH]c4c3)CC2)cc1 100 µM [inhibitor, single point]
CCC1CCc2c(sc(NC(=O)c3ccoc3C)c2C(N)=O)C1 (stereo not given) 14.1 µM [inhibitor, single point]
O=C(Cn1ncc(Cl)c(Cl)c1=O)c1ccc2c(c1)OCCO2 112 µM [inhibitor, single point]
CS(=O)(=O)Nc1ccccc1C(=O)NCCSc1ccc(Cl)cc1 200 µM [inhibitor, partial curve, poor fit]
Cc1cc(=O)oc2cc(OCc3nnc(-c4ccccc4Br)o3)ccc12 79.4 µM [inhibitor, single point]
C(=C\c1ccncc1)/c1ccccc1 20 µM [inhibitor, single point]
CCC(Sc1nc2ccccc2c(=O)[nH]1)C(=O)Nc1ccc(C(C)=O)cc1 (stereo not given) 25.1 µM [inhibitor, single point]
COC(=O)CSc1ncnc2c1cnn2Cc1ccccc1 35.5 µM [inhibitor, single point]
Cc1ccc(S(=O)(=O)c2ncccc2N)cc1 44.7 µM [inhibitor, single point]
COc1ccc(NC(=O)Cn2cc(C(=O)c3ccncc3)c(=O)c3cc(C)ccc32)cc1Cl 224 µM [inhibitor, partial curve, poor fit]
CCOc1ccccc1Nc1nc(-c2sc(C)nc2C)cs1 44.7 µM [inhibitor, single point]
CCOc1ccc(-n2ccnc(SCC(=O)NCc3cccc(OC)c3)c2=O)cc1 282 µM [inhibitor, partial curve, poor fit]
CCCCn1c(N)c(N(CC)C(=O)c2cc(OC)cc(OC)c2)c(=O)[nH]c1=O 14.1 µM [inhibitor, single point]
CCOC(=O)CSc1nc2ccc(Nc3nc(N4CCOCC4)nc(N4CCOCC4)n3)cc2s1 17.8 µM [inhibitor, single point]
COc1ccccc1[C@H]1C(c2cccc(Cl)c2)=NN(c2ccccc2)[C@@H]1CO 89.1 µM [inhibitor, single point]
CCOc1ccc2oc(C(=O)NCC(C)(C)CN(C)C)c(C)c2c1 89.1 µM [inhibitor, single point]
O=C(O)COc1cccc2nsnc12 100 µM [inhibitor, single point]
COc1ccc(C2C(C(=O)N3CCN(c4ccccn4)CC3)CCC(=O)N2c2ccc(OC)cc2)cc1 (stereo not given) 70.8 µM [inhibitor, partial curve, poor fit]
Cn1nnnc1Sc1ncnc2scc(-c3ccc([N+](=O)[O-])cc3)c12 100 µM [inhibitor, partial curve, poor fit]
Cc1nc(CSc2n[nH]c(=O)n2-c2cccc(F)c2)cs1 89.1 µM [inhibitor, single point]
O=C1CCCC/C1=C/Nc1ccc2c(c1)OCO2 56.2 µM [inhibitor, single point]
O=C(c1ccc(Cl)c(Cl)c1)c1cc(-c2ccccn2)c(N2CCOCC2)s1 89.1 µM [inhibitor, partial curve, poor fit]
COc1ccc(Nc2cc(Nc3ccc(OC)cc3)ncn2)cc1 28.2 µM [inhibitor, single point]
CC(CCN1CCN(c2ccccc2)CC1)c1ccccc1 (stereo not given) 22.4 µM [inhibitor, single point]
C=CCNC(=S)NNC(=O)CCC(O)CCCCC (stereo not given) 44.7 µM [inhibitor, single point]
CCC(=O)Nc1nc2ccc([N+](=O)[O-])cc2s1 15.8 µM [inhibitor, single point]
Cc1cc(C)n(CCC(=O)Nc2ccc(-c3ccno3)cc2)n1 100 µM [inhibitor, single point]
Clc1ccc(SCCOCCN2CCc3ccccc3C2)cc1 14.1 µM [inhibitor, single point]
Cc1ccc(OCC(=O)NNC(=O)c2ccc(NC(=O)C3CC3)cc2)c(C)c1 20 µM [inhibitor, single point]
O=C(NCCCN1CCOCC1)c1cc2c([nH]c3ccccc32)c(-c2cccc(Br)c2)n1 112 µM [inhibitor, single point]
CC1(C)NC(=O)N(CC(=O)OCC(=O)c2ccc(Br)s2)C1=O 316 µM [inhibitor, partial curve, poor fit]
Cc1cc(-c2nnc(SCC(=O)Nc3ccc(Cl)cn3)n2N)n[nH]1 56.2 µM [inhibitor, single point]

In the list so far, these have fluorine:
Potency, inconclusive:
O=C(Cc1csc(-c2ccc(F)cc2)n1)Nc1cccc(S(=O)(=O)NC2=NCCC2)c1 79.4 µM [inhibitor, single point]
CCOC(=O)c1c(NC(=O)CSc2nnc(CNc3ccc(F)cc3)o2)sc(C(C)=O)c1C 63.1 µM [inhibitor, partial curve, poor fit]
Cc1nc(CSc2n[nH]c(=O)n2-c2cccc(F)c2)cs1 89.1 µM [inhibitor, single point]

Following part:

Potency, active:
COc1ccc(-c2c(-c3ccc(O)cc3O)n[nH]c2C(F)(F)F)cc1 39.8 µM

Potency, inactive:
COc1ccc(C(C)=O)cc1CSc1nnc(Nc2ccc(C)cc2)s1
Cc1cc(C)c(C#N)c(N2CCOCC2)n1
O=C(NCc1ccc(Cl)cc1)c1cc2ccccc2oc1=O
O=[N+]([O-])c1ccc(CN2CCN(c3ccc(Cl)cc3)CC2)o1
CSc1cccc(NC(=S)N(Cc2ccc(C)cc2)Cc2cccnc2)c1
Cc1nn(-c2ccccn2)c2nc(-c3cccs3)cc(C(=O)N3CCOCC3)c12
CCSc1nnc(NC(=O)C(C(F)(F)F)C(F)(F)F)s1
CCOC(=O)c1c(C)[nH]c(C(C)=O)c1C
CCOc1ccccc1N1CCN(Cc2ccco2)CC1
CC(=O)Nc1ccc(S(=O)(=O)NNC(=S)NCC2CCCO2)cc1 (stereo not given)
Cn1c(SCc2cccnc2)nc2c(c1=O)SCC2
CCCCCCc1cc2cc(C(=O)Nc3ccc(OC)cc3)c(=O)oc2cc1O
O=C(NC1CC1)c1cccc(NC(=O)c2cc(S(=O)(=O)N3CCOCC3)ccc2Cl)c1
O=[N+]([O-])c1cccc(-c2ccc(C(=S)N3CCOCC3)o2)c1
Cc1ccccc1OCc1nc(C#N)c(N2CCCC2)o1
O=C(Nc1ncccc1O)c1cc2ccccc2o1
COCCNC(=O)c1cc(-c2cccs2)on1
Cc1cc(C)c2nc(N3C(=O)C(O)=C(C(=O)c4ccco4)C3c3cccc(O)c3)sc2c1 (stereo not given)
O=C(Nc1ccc2nc(-c3ccco3)[nH]c2c1)c1cccs1
Cc1ccnc(NC(c2ccsc2)c2ccc3ccc(C)nc3c2O)c1 (stereo not given)
O=C1CC(=O)Nc2cc(S(=O)(=O)N3CCN(c4cccc(C(F)(F)F)c4)CC3)ccc2N1
O=C(CCN1CCCC1)Nc1ccc(Br)cc1
CC1(C)Cc2nc3sc4c(SCC(=O)NCc5ccco5)ncnc4c3cc2CO1
Cc1ccc(-c2cc(C(=O)Nc3c(C)n(C)n(-c4ccccc4)c3=O)no2)cc1
Cc1ccc(-c2cc3c(nn2)-c2ccccc2C3=O)cc1
Cc1ccccc1OCc1n[nH]c(=S)n1Cc1ccccc1
CSc1nsc(SCC(=O)NCc2ccc(C)cc2)n1
O=C(CN1CCOCC1)N/N=C/c1ccc(-c2ccc(C(=O)O)cc2)o1
CCc1cc(/C(Cc2ccccn2)=N\Nc2ccccc2)c(O)cc1O
Cc1ccc2nc(SCC(=O)Nc3ccc(C)c([N+](=O)[O-])c3)[nH]c2c1

As a working copy, some entries already given.
Potency, inactive:
COCCNC(=O)c1cc(-c2cccs2)on1
Cc1cc(C)c2nc(N3C(=O)C(O)=C(C(=O)c4ccco4)C3c3cccc(O)c3)sc2c1 (stereo not given)
